# Source: PubChem BioAssay AID504834 (National Center for Advancing Translational Sciences (NCATS), 2011)
# The whole screen tested about 320,000 compounds, of which about 22,000 (6.9%) were called active. The shares of active, inactive and inconclusive entries below differ from those in the screen. Calls follow the shape of the dose curve; as a rule, active = well fitted inhibition curve with a large enough effect; inconclusive = small, poorly fitted or top-dose-only effect, or another doubt; inactive = no such curve, though single readings can be large or run the other way. Where the call is inconclusive, the potency comes from a doubtful curve fit.
# Experiment: Primary qHTS for delayed death inhibitors of the malarial parasite plastid, 96 hour incubation
# Settings: P. falciparum luciferase reporter growth; series mostly up to 28.7 µM
# Outline: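 Luminescence readout: decreased luciferase signal marks inhibited growth of reporter-expressing P. falciparum in infected red cells (2% hematocrit, 0.05% parasitemia final), exposed to compound two generations (96 h, 37 C, 5% CO2).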
# Potency is read from the fitted curve at half-maximal effect.
row,SMILES,Potency
1,CC(C)N1CCc2c(sc(NC(=O)c3ccc(S(=O)(=O)N(C)CC4CCCO4)cc3)c2C(N)=O)C1 (stereo not given),"inconclusive: 16.5 µM [inhibitor, single point]"
2,COC(=O)N/N=C/c1cn(CCCOc2ccccc2)c2ccccc12,inactive
3,CCOc1ccc(NC(=O)CN(C)Cc2ccc3c(c2)OCO3)cc1S(=O)(=O)N1CCCC1,active: 3.29 µM
4,C=CCC1CCCCC12NC(=O)NC2=O (stereo not given),"inconclusive: 18.5 µM [inhibitor, single point]"
5,O=C(O)c1ccc(S(=O)(=O)N2CCc3ccccc3C2)cc1,active: 9.28 µM
6,COc1ccccc1C(=O)COC(=O)c1cc(=O)[nH]c2ccccc12,inactive
7,COc1ccc(CNC(=O)C2CCN(S(=O)(=O)c3cccc(C(F)(F)F)c3)CC2)cc1,"inconclusive: 13.1 µM [inhibitor, single point]"
8,COc1cc(C(=O)COC(=O)c2cc([N+](=O)[O-])ccc2N2CCOCC2)ccc1OC(F)F,"inconclusive: 9.28 µM [inhibitor, partial curve, poor fit]"
9,Cc1cccc(C(=O)N/C(=C\c2ccc(C)o2)C(=O)O)c1,"inconclusive: 11.7 µM [inhibitor, single point]"
10,N#CC1=C(N)Oc2c(ccc3cccnc23)C1c1ccncc1 (stereo not given),"inconclusive: 8.28 µM [inhibitor, partial curve, poor fit]"
11,CCn1c(=O)cc(SCC(=O)N2CCC(C)CC2)c2ccccc21,"inconclusive: 5.86 µM [inhibitor, partial curve, poor fit]"
12,CCOc1cc(Br)cc(/C=C2\SC(=Nc3ccccc3)NC2=O)c1O,"inconclusive: 2.62 µM [inhibitor, partial curve, poor fit]"
13,NC1=NC(c2cccc(Cl)c2)N(CCc2ccc(F)cc2)C(N)=N1 (stereo not given),"inconclusive: 1.85 µM [inhibitor, full curve, poor fit]"
14,COc1ccccc1C1C(C(N)=O)=C(C)Nc2ncnn21 (stereo not given),"inconclusive: 3.7 µM [inhibitor, partial curve, poor fit]"
15,CCOc1c(Cl)cc(C(=O)Nc2cccc(C(=O)O)c2)cc1Cl,inactive
16,Cc1cccc(N2CCN(S(=O)(=O)c3c(C)[nH]c(C)c3C(=O)N3CCCC3)CC2)c1C,inactive
17,CC(=O)c1c(C)nc(C)nc1NC(=O)Cc1ccccc1,inactive
18,COc1cc(/C=C(\C#N)c2nc3ccc(C)cc3[nH]2)cc([N+](=O)[O-])c1O,"inconclusive: 1.47 µM [inhibitor, full curve, poor fit]"
19,Cc1ccccc1C(=O)NCC(=O)NCC1(N2CCOCC2)CCCCC1,inactive
20,COC(=O)C1=C(C)N(CCc2c[nH]c3ccc(OC)cc23)C(=O)C1,"inconclusive: 20.8 µM [inhibitor, partial curve, poor fit]"
21,CCN(CC)c1ccc(NC(=O)c2cnn(CC)c2)cc1,"inconclusive: 7.38 µM [inhibitor, partial curve, poor fit]"
22,O=C(O)COc1ccc(-c2nccc(-c3ccccn3)n2)cc1,"inconclusive: 18.5 µM [inhibitor, single point]"

row,SMILES,Potency
1,COc1cccc(-c2nc(-c3ccc(NC(=O)c4cccnc4)cc3)no2)c1,active: 11.7 µM
2,O=C(/C=C/c1ccco1)NCCc1ccccc1,"inconclusive: 0.0738 µM [inhibitor, full curve, poor fit]"
3,CC(=O)c1ccc(OCC(=O)NC2CCCN(Cc3ccccc3F)C2)cc1 (stereo not given),"inconclusive: 18.5 µM [inhibitor, single point]"
4,CN1CCN(c2ccc(NC(=O)c3cc(Cl)c4c(c3)OCCO4)cc2)CC1,"inconclusive: 2.62 µM [inhibitor, partial curve, poor fit]"
5,Cc1cc(C)n2nc(-c3cccc(Br)c3)cc2n1,"inconclusive: 11.7 µM [inhibitor, partial curve, poor fit]"
6,N#C/C(=C/c1ccc([N+](=O)[O-])cc1)C(N)=O,inactive
7,CC(C)C1Oc2ccccc2N(CC(=O)NCCCN2C(C)CCCC2C)C1=O (stereo not given),"inconclusive: 14.7 µM [inhibitor, single point]"
8,COc1ccc(NC(=O)c2sc3nc(N4CCOCC4)c4c(c3c2N)CC(C)(C)OC4)c(OC)c1,active: 1.65 µM
9,Cc1cccc(N2CC(C(=O)Nc3nnc(SCCN4CCOCC4)s3)CC2=O)c1 (stereo not given),"inconclusive: 2.94 µM [inhibitor, partial curve]"
10,CCOc1ccc(C(=O)CC(C(=O)O)N2CCN(Cc3ccccc3)CC2)cc1 (stereo not given),inactive
11,CCOC(=O)c1ccccc1NC(=O)Cn1c(-c2nonc2N)nc2ccccc21,inactive
12,O=C(c1cc(Cl)nc2ccccc12)N1CCN(S(=O)(=O)c2cccc(C(F)(F)F)c2)CC1,"inconclusive: 18.5 µM [inhibitor, single point]"
13,CCCc1ccc(-c2c(C)sc(NC(=O)c3ccnn3C)c2C#N)cc1,"inconclusive: 14.7 µM [inhibitor, partial curve, poor fit]"
14,COc1ccc(NC(=O)/C(=C\c2ccco2)NC(=O)c2ccco2)cc1,"inconclusive: 18.5 µM [inhibitor, single point]"
15,CC1(C)C2CCC1(C)C(OC(=O)c1ccc(O)cc1)C2 (stereo not given),"inconclusive: 9.28 µM [inhibitor, partial curve, poor fit]"
16,Nc1ccc(C(=O)Nc2cccc(NC(=O)c3ccc(N)cc3)c2)cc1,"inconclusive: 18.5 µM [inhibitor, single point]"
17,CCn1c(SCC(=O)Nc2ccc(S(N)(=O)=O)cc2)nnc1-c1ccccc1OC,inactive
18,COc1cc(C(=O)NC(=S)Nc2ccc([N+](=O)[O-])cc2C)cc(OC)c1OC,"inconclusive: 18.5 µM [inhibitor, partial curve, poor fit]"
19,O=[N+]([O-])c1ccc2c(c1)Nc1nc3ccccc3nc1N2,"inconclusive: 11.7 µM [inhibitor, single point]"
20,O=C(N/N=C/C1CC=CCC1)c1ccc(Cl)cc1O (stereo not given),active: 2.33 µM
21,O=C(NCCN1CCc2ccccc2C1)Nc1ccc([N+](=O)[O-])cc1,"inconclusive: 11.7 µM [inhibitor, single point]"
22,COc1ccc(-c2nc(Cn3c(SCc4ccc(F)cc4)nc4ccncc43)c(C)o2)cc1OC,"inconclusive: 1.85 µM [inhibitor, full curve]"

row,SMILES,Potency
1,O=C(NN=C(Cc1ccccc1)Cc1ccccc1)c1ccccc1O,"inconclusive: 16.5 µM [inhibitor, partial curve, poor fit]"
2,COC(=O)CCCC1=CC2=CC(=O)C(C)(OC(=O)c3cccs3)C(=O)C2=CN1CCc1c[nH]c2ccccc12 (stereo not given),active: 10.4 µM
3,Cc1ccc(-c2nn(-c3ccccc3)cc2/C=N/NC(=O)c2ccc(Br)o2)cc1,"inconclusive: 0.037 µM [inhibitor, full curve, poor fit]"
4,Cc1ccc(C(=O)NCCc2nnc3ccc(SCC(=O)N4CCCCC4)nn23)cc1,"inconclusive: 11.7 µM [inhibitor, single point]"
5,Cc1ccc(N/C(N)=N/c2nc(CSc3ccccn3)cc(=O)[nH]2)c(C)c1,"inconclusive: 11.7 µM [inhibitor, partial curve, poor fit]"
6,CC(C)CNC(=O)C(=O)NNC(=O)C1CCCCC1,"inconclusive: 0.0037 µM [inhibitor, full curve, poor fit]"
7,CC1(C)Cc2c(sc3ncn4nc(CCC(=O)O)c(=O)nc4c23)CO1,"inconclusive: 20.8 µM [inhibitor, partial curve, poor fit]"
8,CN(C)CCCN(C(=O)c1ccc(S(=O)(=O)N2CCc3ccccc3C2)cc1)c1nc2c(F)cc(F)cc2s1,"inconclusive: 0.928 µM [inhibitor, full curve, poor fit]"
9,O=C(OCC1OC2OC3(CCCCC3)OC2C2OC3(CCCCC3)OC12)c1ccccc1 (stereo not given),"inconclusive: 10.4 µM [inhibitor, partial curve]"
10,NS(=O)(=O)c1cccc(NC(=O)CN2CCC(Cc3ccccc3)CC2)c1,inactive
11,COc1ccc(S(=O)(=O)N(Cc2ccc(OC)c(OC)c2)Cc2ccco2)cc1,"inconclusive: 2.62 µM [inhibitor, full curve, poor fit]"
12,Cc1ncc(CO)c(/C=N/NC(=O)c2ccc(Br)cc2)c1O,"inconclusive: 18.5 µM [inhibitor, single point]"
13,Cc1cc(C)nc(NC(=O)Cc2ccc(Br)cc2)n1,"inconclusive: 8.28 µM [inhibitor, partial curve, poor fit]"
14,COC(=O)c1[nH]c2cc(C)ccc2c1NC(=O)CN1CCCc2ccccc21,"inconclusive: 11.7 µM [inhibitor, single point]"
15,COc1ccc(N(CC(=O)NCc2ccc(F)cc2)S(=O)(=O)c2c(C)n[nH]c2C)cc1,"inconclusive: 14.7 µM [inhibitor, partial curve, poor fit]"
16,Cc1ccc(S(=O)(=O)N(C)C)cc1NC(=O)COC(=O)COc1ccc2c(c1)CCC2,inactive
17,O=C(Nc1cccc(O)c1)c1ccc(Br)c(S(=O)(=O)N2CCCCC2)c1,inactive
18,Nc1ncnc2nc(SCc3ccc(Cl)cc3Cl)[nH]c12,"inconclusive: 18.5 µM [inhibitor, single point]"
19,CN(Cc1ccccc1)C(=O)c1ccc(NC(=O)Cc2cccc(NC(=O)C3CCN(C(=O)C4CCCC4)CC3)c2)cc1,active: 5.86 µM
20,Oc1[nH]c(=S)sc1C=C1N=c2ccccc2=N1,inactive
21,Cc1cc(NC(=O)CN2C(=O)NC3(CCCCCC3)C2=O)ccc1Br,inactive

# A stretch from further up, for reference:
row,SMILES,Potency
13,Cc1cc(C)nc(NC(=O)Cc2ccc(Br)cc2)n1,"inconclusive: 8.28 µM [inhibitor, partial curve, poor fit]"
14,COC(=O)c1[nH]c2cc(C)ccc2c1NC(=O)CN1CCCc2ccccc21,"inconclusive: 11.7 µM [inhibitor, single point]"
15,COc1ccc(N(CC(=O)NCc2ccc(F)cc2)S(=O)(=O)c2c(C)n[nH]c2C)cc1,"inconclusive: 14.7 µM [inhibitor, partial curve, poor fit]"
